According to patent US20230110223A1, “ECHOGENIC COMPOSITIONS AND METHODS OF USE THEREOF FOR THE TREATMENT OF PAIN” (InSitu Biologics, Inc., priority 2021, published 2023):

Test system: deceased-porcine (butchered ham and liver) model
Test: Ultrasound echogenicity and tissue extravasation after injection into deceased-porcine tissue
Conditions: injection at approximately 2.5 cm depth, room-temperature deceased-porcine tissue
Experimental: In this study, the ultrasonographic characteristics of INSB200 were tested and the results compared the results of commonly used aqueous phase local anesthetic preparations.
In a room-temperature deceased-porcine (butchered ham and liver) model, we sequentially injected commonly used local anesthetics: Ropivacaine (0.5%), bupivacaine (0.5%), and liposomal bupivacaine (Exparel). In addition, we injected two different preparations of hydrogel-lipid-microparticle matrix ropivacaine (27 mg/mL and 38 mg/mL). The medicant was deposited into the test medium via 21 gauge - 50 mm needle at approximately 2.5 cm depth for each sample and performed under ultrasound guidance (Sonosite PX and 15-4 MHz probe). Pre and post injection images (FIGS. 1A-2B) were collected for each preparation and evaluated for sample echogenicity and tissue extravasation.

| Compound | sample echogenicity on ultrasound | tissue extravasation / tissue spread on ultrasound |
| --- | --- | --- |
| CCCN1CCCC[C@H]1C(=O)Nc1c(C)cccc1C [ropivacaine 0.5%, Ropivacaine] | non-echogenic | significant tissue spread |
| CCCCN1CCCCC1C(=O)Nc1c(C)cccc1C (stereo not shown) [bupivacaine 0.5%, bupivacaine] | non-echogenic | significant tissue spread |
